Source: PMC4231765
Positions count from the first letter of the chain named. Numbers in names are those of the source. Results are given in words; binding and its absence hold for the method and conditions named. For part of these data: Binding seen in cells or lysates may run through a third protein. Some entries that bind do so weakly or less than the wild type. Tags and fused reporters may be left off the sequences shown. One block for each binder: values may come before it.

Columns and labels:
[1] = biological target: T1, HYL1^L165E, recombinant (MBP-L165E and GST-L165E) (Arabidopsis thaliana) (UniProt O04492); assay: pull-down; MBP-tagged protein on amylose resin, incubated with GST-tagged protein overnight at 4°C in 25 mM Tris pH 7.4, 1 mM EDTA, 0.01% NP-40, 2 M NaCl; 10 washes; immunoblot with GST antibody; both purified
T1 sequence: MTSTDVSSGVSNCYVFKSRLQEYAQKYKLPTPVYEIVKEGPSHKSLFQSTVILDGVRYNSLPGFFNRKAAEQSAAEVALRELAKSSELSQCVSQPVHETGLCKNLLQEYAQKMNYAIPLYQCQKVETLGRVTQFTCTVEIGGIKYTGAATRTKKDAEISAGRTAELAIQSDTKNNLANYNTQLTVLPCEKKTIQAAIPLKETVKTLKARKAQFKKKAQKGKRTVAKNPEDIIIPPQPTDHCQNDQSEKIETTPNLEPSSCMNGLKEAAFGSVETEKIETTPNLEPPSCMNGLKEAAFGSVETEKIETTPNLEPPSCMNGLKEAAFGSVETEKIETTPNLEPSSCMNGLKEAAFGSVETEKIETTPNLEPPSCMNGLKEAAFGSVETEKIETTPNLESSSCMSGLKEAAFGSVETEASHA

[2] = biological target: T2, HYL1, wild type, BiFC fusion (nYFP- and cYFP-tagged) (Arabidopsis thaliana) (UniProt O04492); assay: split reporter; BiFC: cYFP-tagged and nYFP-tagged constructs cotransformed into Arabidopsis protoplasts, 22.5°C in darkness for 12 h, confocal microscopy
T2 sequence: T1 sequence with E165L

[3] = biological target: T3, HYL1^L165E, BiFC fusion (Arabidopsis thaliana) (UniProt O04492); assay: as above
T3 sequence: T1 sequence

[4] = biological target: T4, HYL1, wild type, BiFC fusion (nYFP- and cYFP-tagged) (Arabidopsis thaliana), O04492; assay: as above; details: remark: other sources report otherwise
T4 chain: T1 sequence with E165L

B2: HYL1^L165E, BiFC fusion (protein, UniProt O04492 1-419)
chain: T1 sequence
binding [2]: binds weakly
binding [3]: binds weakly

B3: HYL1, wild type, BiFC fusion (nYFP- and cYFP-tagged), O04492 1-419 (protein)
chain: T1 sequence with E165L
binding [4]: binds

B4: HYL1^G147E, BiFC fusion (protein, UniProt O04492 1-419)
chain: T1 sequence with G147E, E165L
binding [2]: binds weakly

The next lines start with the values.

binding [1]: binds weakly
B1: HYL1^L165E, recombinant (MBP-L165E and GST-L165E) (protein, UniProt O04492 1-419)
chain: T1 sequence

binding [4]: binds
B5: SE, BiFC fusion, Q9ZVD0 1-720 (protein)
chain: MADVNLPPSDSVDNRLPEKSTSSSPPPPPPSSSLPQQEQEQDQQQLPLRRERDSRERRDERDIERPPPNRRERDRSPLPPPRRDYKRRPSLSPPPPYRDRRHSPPQRRSPPQKRYRRDDNGYDGRRGSPRGGYGPPDRRFGYDHGGGYDREMGGRPGYGDERPHGRFMGRYQDWEGGRGGYGDASNSGNPQRDGLMSYKQFIQELEDDILPSEAERRYQEYKSEYITTQKRAFFNTHKEEDWLKNKYHPTNLLSVIERRNDLAQKVAKDFLLDLQSGTLDLGPAVTALNKSGRTSEPNSEDEAAGVGKRKRHGMGGAKENELLSAAPKAPSFTSDPKRILTDVEQTQALVRKLDSEKKIEENVLQGSETEKSGREKLHSGSTGPVVIIRGLTSVKGLEGVELLDTLVTYLWRVHGLDYYGKVETNEAKGLRHVRAEGKVSDAKGDENESKFDSHWQERLKGQDPLEVMAAKEKIDAAATEALDPHVRKIRDEKYGWKYGCGAKGCTKLFHAAEFVYKHLKLKHTELVTELTTKVREELYFQNYMNDPNAPGGQPATQQSGPRDRPIRRKPSMENRLRDDRGGRRERDGRANGNDRNDRSEDQQRGDNDGGNPGEVGYDAFGGQGGVHVPPFLSDINPPPMLMPVPGAGPLGPFVPAPPEVAMQMFRDPSGPNPPFEGSGRGGPAPFLLSPAFRQDPRRLRSYQDLDAPEEEVTVIDYRSL
